No constants are given. Whether binding was seen depends on the method and setting. In cells and extracts the contact can be indirect. Some results given as binding are weak or reduced against the parent protein; the word gives no strength. For some of these results: Tags and fused reporters may be left off the sequences shown.

Sequences of proteins named here, by UniProt entry; tags and fusion partners are left off. Residues count along the entry.
UniProt P54763, residues 19-986: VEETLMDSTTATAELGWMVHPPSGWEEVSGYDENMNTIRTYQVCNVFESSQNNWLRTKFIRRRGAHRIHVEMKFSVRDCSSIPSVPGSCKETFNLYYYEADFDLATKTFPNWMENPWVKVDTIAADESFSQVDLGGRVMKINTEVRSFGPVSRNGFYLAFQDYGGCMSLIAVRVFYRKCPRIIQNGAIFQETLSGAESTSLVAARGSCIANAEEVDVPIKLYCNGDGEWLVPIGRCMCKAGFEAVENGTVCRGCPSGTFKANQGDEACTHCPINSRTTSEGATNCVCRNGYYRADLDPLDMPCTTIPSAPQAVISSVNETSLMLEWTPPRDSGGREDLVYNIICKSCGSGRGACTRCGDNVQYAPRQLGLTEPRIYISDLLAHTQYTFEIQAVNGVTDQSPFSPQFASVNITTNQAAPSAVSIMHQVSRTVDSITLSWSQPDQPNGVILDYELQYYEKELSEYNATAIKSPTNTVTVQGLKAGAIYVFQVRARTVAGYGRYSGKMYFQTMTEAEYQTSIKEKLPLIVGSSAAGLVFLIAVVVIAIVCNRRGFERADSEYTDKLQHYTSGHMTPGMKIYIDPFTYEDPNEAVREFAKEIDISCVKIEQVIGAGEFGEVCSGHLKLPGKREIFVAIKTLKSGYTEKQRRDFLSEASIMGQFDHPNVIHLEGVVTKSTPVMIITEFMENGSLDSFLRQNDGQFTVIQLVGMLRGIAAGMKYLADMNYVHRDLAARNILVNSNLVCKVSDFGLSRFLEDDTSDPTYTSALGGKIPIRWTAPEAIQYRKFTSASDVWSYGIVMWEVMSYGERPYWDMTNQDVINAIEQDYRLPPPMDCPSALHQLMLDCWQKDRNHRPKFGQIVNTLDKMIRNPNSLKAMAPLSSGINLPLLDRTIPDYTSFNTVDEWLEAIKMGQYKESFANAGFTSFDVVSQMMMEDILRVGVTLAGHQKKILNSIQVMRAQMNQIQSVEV
UniProt P29323, residues 19-1055: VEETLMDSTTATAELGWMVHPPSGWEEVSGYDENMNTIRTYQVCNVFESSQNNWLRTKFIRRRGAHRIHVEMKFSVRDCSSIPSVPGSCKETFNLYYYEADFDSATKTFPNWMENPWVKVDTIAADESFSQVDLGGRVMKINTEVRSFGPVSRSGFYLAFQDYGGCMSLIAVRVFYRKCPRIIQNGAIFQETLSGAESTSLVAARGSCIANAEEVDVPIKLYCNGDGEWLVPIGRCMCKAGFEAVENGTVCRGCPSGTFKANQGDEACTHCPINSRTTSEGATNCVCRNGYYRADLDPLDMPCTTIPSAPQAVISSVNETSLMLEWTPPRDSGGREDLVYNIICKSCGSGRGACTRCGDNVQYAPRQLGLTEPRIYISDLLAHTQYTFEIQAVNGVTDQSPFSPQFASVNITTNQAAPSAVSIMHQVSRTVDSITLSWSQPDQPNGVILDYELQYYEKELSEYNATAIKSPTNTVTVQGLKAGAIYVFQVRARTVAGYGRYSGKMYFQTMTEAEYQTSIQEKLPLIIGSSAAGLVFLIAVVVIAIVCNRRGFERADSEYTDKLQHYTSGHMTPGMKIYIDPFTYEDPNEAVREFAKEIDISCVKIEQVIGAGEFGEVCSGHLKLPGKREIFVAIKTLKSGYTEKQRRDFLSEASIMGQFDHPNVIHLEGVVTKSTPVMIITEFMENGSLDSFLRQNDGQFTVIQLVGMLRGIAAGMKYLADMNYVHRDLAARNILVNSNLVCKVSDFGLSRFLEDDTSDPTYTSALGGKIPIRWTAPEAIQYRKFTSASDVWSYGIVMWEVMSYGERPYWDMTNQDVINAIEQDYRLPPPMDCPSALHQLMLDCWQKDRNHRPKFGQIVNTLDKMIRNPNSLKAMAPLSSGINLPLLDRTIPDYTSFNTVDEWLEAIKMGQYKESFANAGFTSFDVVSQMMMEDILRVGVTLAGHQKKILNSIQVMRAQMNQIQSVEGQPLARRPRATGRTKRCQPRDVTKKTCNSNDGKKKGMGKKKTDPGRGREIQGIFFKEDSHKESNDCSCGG

Assay [1] concerns the target full-length Flag-EphB2 (murine) (mouse) (UniProt P54763). Briefly: co-IP; Flag-EphB2 precipitated with anti-FLAG M2-agarose from lysates of transfected HeLa cells (25 mM Hepes pH 7.4, 150 mM NaCl, 1% Triton X-100; at least 3 h at 4°C), Western blot; cells untreated, treated with preclustered Fc or ephrinB1-Fc, cocultured with ephrinB1ΔC donor HeLa cells, co-expressing GFP-Tiam2ΔN or GFP, or treated with DMSO or Dyngo-4a. For orientation: In western blotting, separated proteins are transferred to a membrane and probed.

Assay [2] deals with endogenous EphB2 (human (endogenous in U251)) (UniProt P29323). Briefly: co-IP; U251 cells cocultured with control GFP+ or ephrinB1ΔC-GFP+ HeLa cells for 30 min; lysates immunoprecipitated with anti-EphB2 antibodies; endogenous proteins.

B1: GFP-Gulp1 fusion protein (full-length mouse Gulp1) (protein, UniProt Q8K2A1 1-304)
chain: MNRAFSRKKDKTWMHTPEALSKHYIPYNAKFLGSTEVEQPKGTEVVRDAVRKLKFARHIKKSEGQKIPKVELQISIYGVKILEPKTKEVQHNCQLHRISFCADDKTDKRIFTFICKDSESNKHLCFVFDSEKCAEEITLTIGQAFDLAYRKFLESGGKDVETRKQIAGMQKRIQDLETENMELKNKVQDLESRLRTTQVSTSPAHGVTVMSPSTDIFDMIPFSPISHQSPTSARNGTQLPPIPSRSAETKRDLFGAEPFDPFNCGSGDFPPDIQSKLDEMQEGFKMGLTLEGTVFCLDPLDSRC
Regarding B1, in assay [1], the binding result is reported as “binds weakly”.

B2: full-length myc-Gulp1 (protein, UniProt Q8K2A1 1-304)
chain: B1 chain
Regarding B2, the binding entry in assay [1] is on record as “binds”.

B3: endogenous Gulp1 (protein, UniProt Q9UBP9 1-304)
chain: MNRAFSRKKDKTWMHTPEALSKHFIPYNAKFLGSTEVEQPKGTEVVRDAVRKLKFARHIKKSEGQKIPKVELQISIYGVKILEPKTKEVQHNCQLHRISFCADDKTDKRIFTFICKDSESNKHLCYVFDSEKCAEEITLTIGQAFDLAYRKFLESGGKDVETRKQIAGLQKRIQDLETENMELKNKVQDLENQLRITQVSAPPAGSMTPKSPSTDIFDMIPFSPISHQSSMPTRNGTQPPPVPSRSTEIKRDLFGAEPFDPFNCGAADFPPDIQSKLDEMQEGFKMGLTLEGTVFCLDPLDSRC
As to B3, the binding entry in assay [2] and in assay [1] was “binds” in each case.

The record behind these values is publication PMC6781437.
